The target of one assay is T1, mGrn-Flag (mouse) (UniProt P28798).
T1 sequence: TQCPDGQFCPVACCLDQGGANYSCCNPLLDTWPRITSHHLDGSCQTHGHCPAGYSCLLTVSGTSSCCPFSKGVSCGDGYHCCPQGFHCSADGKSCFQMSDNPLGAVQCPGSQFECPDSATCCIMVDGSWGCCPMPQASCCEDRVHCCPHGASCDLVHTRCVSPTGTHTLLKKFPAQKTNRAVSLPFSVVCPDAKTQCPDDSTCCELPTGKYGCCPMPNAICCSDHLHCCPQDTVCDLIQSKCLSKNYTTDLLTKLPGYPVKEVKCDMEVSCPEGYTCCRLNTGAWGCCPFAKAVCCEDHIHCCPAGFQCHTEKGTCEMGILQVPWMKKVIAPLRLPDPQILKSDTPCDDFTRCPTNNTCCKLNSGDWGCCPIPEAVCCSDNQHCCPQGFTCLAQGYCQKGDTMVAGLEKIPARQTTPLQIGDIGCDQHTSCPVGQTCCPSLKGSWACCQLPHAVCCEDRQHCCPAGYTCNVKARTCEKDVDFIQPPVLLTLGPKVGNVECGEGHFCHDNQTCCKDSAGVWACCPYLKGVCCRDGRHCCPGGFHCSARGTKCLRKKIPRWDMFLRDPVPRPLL
As to the kind of experiment: co-IP; HEK293 cells transiently co-transfected with Notch1-ECD-V5 or Notch1-ICD-V5 and progranulin-Flag (human proteins; repeated with the mouse proteins); lysate supernatants; IP with anti-Flag or anti-V5 on Immunosorb A overnight at 4 °C; immunoblot with anti-V5 and anti-Flag.

For another assay, the target named is mNotch1 ECD-V5 (mouse). Described as above.

Results are given in words; binding and its absence hold for the method and conditions named. In cells and extracts the contact can be indirect. A result given as binding can be weak or reduced; the word gives no strength. Tags and fused reporters may be left off the sequences shown.

In the case of “mNotch1 ECD-V5 (mouse) (domain or fragment)”, the binding entry in the assay with mGrn-Flag (mouse) is recorded as “binds”.

B1: mGrn-Flag (protein, UniProt P28798 18-589)
chain: TQCPDGQFCPVACCLDQGGANYSCCNPLLDTWPRITSHHLDGSCQTHGHCPAGYSCLLTVSGTSSCCPFSKGVSCGDGYHCCPQGFHCSADGKSCFQMSDNPLGAVQCPGSQFECPDSATCCIMVDGSWGCCPMPQASCCEDRVHCCPHGASCDLVHTRCVSPTGTHTLLKKFPAQKTNRAVSLPFSVVCPDAKTQCPDDSTCCELPTGKYGCCPMPNAICCSDHLHCCPQDTVCDLIQSKCLSKNYTTDLLTKLPGYPVKEVKCDMEVSCPEGYTCCRLNTGAWGCCPFAKAVCCEDHIHCCPAGFQCHTEKGTCEMGILQVPWMKKVIAPLRLPDPQILKSDTPCDDFTRCPTNNTCCKLNSGDWGCCPIPEAVCCSDNQHCCPQGFTCLAQGYCQKGDTMVAGLEKIPARQTTPLQIGDIGCDQHTSCPVGQTCCPSLKGSWACCQLPHAVCCEDRQHCCPAGYTCNVKARTCEKDVDFIQPPVLLTLGPKVGNVECGEGHFCHDNQTCCKDSAGVWACCPYLKGVCCRDGRHCCPGGFHCSARGTKCLRKKIPRWDMFLRDPVPRPLL
B1: in the assay with mNotch1 ECD-V5 (mouse), the binding entry is “binds”.
